Five molecules from paper PMC12124498 can be followed below.

By UniProt entry, the sequences of proteins in these tests, tags left out.
UniProt P26368: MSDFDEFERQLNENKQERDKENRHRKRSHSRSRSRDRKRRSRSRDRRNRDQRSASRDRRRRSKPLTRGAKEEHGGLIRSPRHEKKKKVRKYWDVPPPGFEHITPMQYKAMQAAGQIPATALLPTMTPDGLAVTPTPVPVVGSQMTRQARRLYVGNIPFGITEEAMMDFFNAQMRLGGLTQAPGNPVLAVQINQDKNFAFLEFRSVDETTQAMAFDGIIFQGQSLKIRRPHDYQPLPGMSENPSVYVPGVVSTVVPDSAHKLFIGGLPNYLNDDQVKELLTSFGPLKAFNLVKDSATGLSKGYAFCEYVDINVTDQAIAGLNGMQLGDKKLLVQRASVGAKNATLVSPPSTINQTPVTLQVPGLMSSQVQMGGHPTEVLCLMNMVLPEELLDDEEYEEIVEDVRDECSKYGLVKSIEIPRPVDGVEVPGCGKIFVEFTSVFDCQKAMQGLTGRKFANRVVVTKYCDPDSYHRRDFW

No constants are given. Whether binding was seen depends on the method and setting. In cells and extracts the contact can be indirect. Here binding means that the protein was enriched with, or labelled near, the bait; the list need not be complete.

For the assay, the target named is U2AF2-TurboID-HA (human) (UniProt P26368). In words: proximity labelling; U2AF2-TurboID-HA induced with doxycycline for 4 h in mesoderm cells differentiated from hiPSC (CHIR99021, 24 h); biotinylated proteins purified on streptavidin magnetic beads, LC-MS with label-free quantification; hits: Log2ΔLFQ >= 2 and p <= 0.05, mesoderm against pluripotent U2AF2-TurboID samples or against GFP-TurboID.

B1: DDX42 (protein, UniProt Q86XP3 1-938)
chain: MNWNKGGPGTKRGFGFGGFAISAGKKEEPKLPQQSHSAFGATSSSSGFGKSAPPQLPSFYKIGSKRANFDEENAYFEDEEEDSSNVDLPYIPAENSPTRQQFHSKPVDSDSDDDPLEAFMAEVEDQAARDMKRLEEKDKERKNVKGIRDDIEEEDDQEAYFRYMAENPTAGVVQEEEEDNLEYDSDGNPIAPTKKIIDPLPPIDHSEIDYPPFEKNFYNEHEEITNLTPQQLIDLRHKLNLRVSGAAPPRPGSSFAHFGFDEQLMHQIRKSEYTQPTPIQCQGVPVALSGRDMIGIAKTGSGKTAAFIWPMLIHIMDQKELEPGDGPIAVIVCPTRELCQQIHAECKRFGKAYNLRSVAVYGGGSMWEQAKALQEGAEIVVCTPGRLIDHVKKKATNLQRVSYLVFDEADRMFDMGFEYQVRSIASHVRPDRQTLLFSATFRKKIEKLARDILIDPIRVVQGDIGEANEDVTQIVEILHSGPSKWNWLTRRLVEFTSSGSVLLFVTKKANAEELANNLKQEGHNLGLLHGDMDQSERNKVISDFKKKDIPVLVATDVAARGLDIPSIKTVINYDVARDIDTHTHRIGRTGRAGEKGVAYTLLTPKDSNFAGDLVRNLEGANQHVSKELLDLAMQNAWFRKSRFKGGKGKKLNIGGGGLGYRERPGLGSENMDRGNNNVMSNYEAYKPSTGAMGDRLTAMKAAFQSQYKSHFVAASLSNQKAGSSAAGASGWTSAGSLNSVPTNSAQQGHNSPDSPVTSAAKGIPGFGNTGNISGAPVTYPSAGAQGVNNTASGNNSREGTGGSNGKRERYTENRGSSRHSHGETGNRHSDSPRHGDGGRHGDGYRHPESSSRHTDGHRHGENRHGGSAGRHGENRGANDGRNGESRKEAFNRESKMEPKMEPKVDSSKMDKVDSKTDKTADGFAVPEPPKRKKSRWDS
For the molecule B1, the binding result is “binds”.

B2: PRPF3 (protein, UniProt O43395 1-683)
chain: MALSKRELDELKPWIEKTVKRVLGFSEPTVVTAALNCVGKGMDKKKAADHLKPFLDDSTLRFVDKLFEAVEEGRSSRHSKSSSDRSRKRELKEVFGDDSEISKESSGVKKRRIPRFEEVEEEPEVIPGPPSESPGMLTKLQIKQMMEAATRQIEERKKQLSFISPPTPQPKTPSSSQPERLPIGNTIQPSQAATFMNDAIEKARKAAELQARIQAQLALKPGLIGNANMVGLANLHAMGIAPPKVELKDQTKPTPLILDEQGRTVDATGKEIELTHRMPTLKANIRAVKREQFKQQLKEKPSEDMESNTFFDPRVSIAPSQRQRRTFKFHDKGKFEKIAQRLRTKAQLEKLQAEISQAARKTGIHTSTRLALIAPKKELKEGDIPEIEWWDSYIIPNGFDLTEENPKREDYFGITNLVEHPAQLNPPVDNDTPVTLGVYLTKKEQKKLRRQTRREAQKELQEKVRLGLMPPPEPKVRISNLMRVLGTEAVQDPTKVEAHVRAQMAKRQKAHEEANAARKLTAEQRKVKKIKKLKEDISQGVHISVYRVRNLSNPAKKFKIEANAGQLYLTGVVVLHKDVNVVVVEGGPKAQKKFKRLMLHRIKWDEQTSNTKGDDDEESDEEAVKKTNKCVLVWEGTAKDRSFGEMKFKQCPTENMAREHFKKHGAEHYWDLALSESVLESTD
For the molecule B2, the binding entry is reported as “binds”.

B3: DDX46 (protein, UniProt Q7L014 1-1031)
chain: MGRESRHYRKRSASRGRSGSRSRSRSPSDKRSKRGDDRRSRSRDRDRRRERSRSRDKRRSRSRDRKRLRRSRSRERDRSRERRRSRSRDRRRSRSRSRGRRSRSSSPGNKSKKTENRSRSKEKTDGGESSKEKKKDKDDKEDEKEKDAGNFDQNKLEEEMRKRKERVEKWREEQRKKAMENIGELKKEIEEMKQGKKWSLEDDDDDEDDPAEAEKEGNEMEGEELDPLDAYMEEVKEEVKKFNMRSVKGGGGNEKKSGPTVTKVVTVVTTKKAVVDSDKKKGELMENDQDAMEYSSEEEEVDLQTALTGYQTKQRKLLEPVDHGKIEYEPFRKNFYVEVPELAKMSQEEVNVFRLEMEGITVKGKGCPKPIKSWVQCGISMKILNSLKKHGYEKPTPIQTQAIPAIMSGRDLIGIAKTGSGKTIAFLLPMFRHIMDQRSLEEGEGPIAVIMTPTRELALQITKECKKFSKTLGLRVVCVYGGTGISEQIAELKRGAEIIVCTPGRMIDMLAANSGRVTNLRRVTYVVLDEADRMFDMGFEPQVMRIVDNVRPDRQTVMFSATFPRAMEALARRILSKPIEVQVGGRSVVCSDVEQQVIVIEEEKKFLKLLELLGHYQESGSVIIFVDKQEHADGLLKDLMRASYPCMSLHGGIDQYDRDSIINDFKNGTCKLLVATSVAARGLDVKHLILVVNYSCPNHYEDYVHRAGRTGRAGNKGYAYTFITEDQARYAGDIIKALELSGTAVPPDLEKLWSDFKDQQKAEGKIIKKSSGFSGKGFKFDETEQALANERKKLQKAALGLQDSDDEDAAVDIDEQIESMFNSKKRVKDMAAPGTSSVPAPTAGNAEKLEIAKRLALRINAQKNLGIESQDVMQQATNAILRGGTILAPTVSAKTIAEQLAEKINAKLNYVPLEKQEEERQDGGQNESFKRYEEELEINDFPQTARWKVTSKEALQRISEYSEAAITIRGTYFPPGKEPKEGERKIYLAIESANELAVQKAKAEITRLIKEELIRLQNSYQPTNKGRYKVL
Turning to B3, the binding entry is given as “binds”.

B4: KHSRP (protein, UniProt Q92945 1-711)
chain: MSDYSTGGPPPGPPPPAGGGGGAGGAGGGPPPGPPGAGDRGGGGPGGGGPGGGSAGGPSQPPGGGGPGIRKDAFADAVQRARQIAAKIGGDAATTVNNSTPDFGFGGQKRQLEDGDQPESKKLASQGDSISSQLGPIHPPPRTSMTEEYRVPDGMVGLIIGRGGEQINKIQQDSGCKVQISPDSGGLPERSVSLTGAPESVQKAKMMLDDIVSRGRGGPPGQFHDNANGGQNGTVQEIMIPAGKAGLVIGKGGETIKQLQERAGVKMILIQDGSQNTNVDKPLRIIGDPYKVQQACEMVMDILRERDQGGFGDRNEYGSRIGGGIDVPVPRHSVGVVIGRSGEMIKKIQNDAGVRIQFKQDDGTGPEKIAHIMGPPDRCEHAARIINDLLQSLRSGPPGPPGGPGMPPGGRGRGRGQGNWGPPGGEMTFSIPTHKCGLVIGRGGENVKAINQQTGAFVEISRQLPPNGDPNFKLFIIRGSPQQIDHAKQLIEEKIEGPLCPVGPGPGGPGPAGPMGPFNPGPFNQGPPGAPPHAGGPPPHQYPPQGWGNTYPQWQPPAPHDPSKAAAAAADPNAAWAAYYSHYYQQPPGPVPGPAPAPAAPPAQGEPPQPPPTGQSDYTKAWEEYYKKIGQQPQQPGAPPQQDYTKAWEEYYKKQAQVATGGGPGAPPGSQPDYSAAWAEYYRQQAAYYGQTPGPGGPQPPPTQQGQQQAQ
As for B4, the binding entry is on record as “binds”.

B5: CBS (protein, UniProt P35520 1-551)
chain: MPSETPQAEVGPTGCPHRSGPHSAKGSLEKGSPEDKEAKEPLWIRPDAPSRCTWQLGRPASESPHHHTAPAKSPKILPDILKKIGDTPMVRINKIGKKFGLKCELLAKCEFFNAGGSVKDRISLRMIEDAERDGTLKPGDTIIEPTSGNTGIGLALAAAVRGYRCIIVMPEKMSSEKVDVLRALGAEIVRTPTNARFDSPESHVGVAWRLKNEIPNSHILDQYRNASNPLAHYDTTADEILQQCDGKLDMLVASVGTGGTITGIARKLKEKCPGCRIIGVDPEGSILAEPEELNQTEQTTYEVEGIGYDFIPTVLDRTVVDKWFKSNDEEAFTFARMLIAQEGLLCGGSAGSTVAVAVKAAQELQEGQRCVVILPDSVRNYMTKFLSDRWMLQKGFLKEEDLTEKKPWWWHLRVQELGLSAPLTVLPTITCGHTIEILREKGFDQAPVVDEAGVILGMVTLGNMLSSLLAGKVQPSDQVGKVIYKQFKQIRLTDTLGRLSHILEMDHFALVVHEQIQYHSTGKSSQRQMVFGVVTAIDLLNFVAAQERDQK
On to B5, for which the binding entry is listed as “binds”.
